From doi:10.1101/2022.10.06.511211

Amino acid sequences for entries named in this document (tags omitted).
UniProt B1AWN6, whole entry: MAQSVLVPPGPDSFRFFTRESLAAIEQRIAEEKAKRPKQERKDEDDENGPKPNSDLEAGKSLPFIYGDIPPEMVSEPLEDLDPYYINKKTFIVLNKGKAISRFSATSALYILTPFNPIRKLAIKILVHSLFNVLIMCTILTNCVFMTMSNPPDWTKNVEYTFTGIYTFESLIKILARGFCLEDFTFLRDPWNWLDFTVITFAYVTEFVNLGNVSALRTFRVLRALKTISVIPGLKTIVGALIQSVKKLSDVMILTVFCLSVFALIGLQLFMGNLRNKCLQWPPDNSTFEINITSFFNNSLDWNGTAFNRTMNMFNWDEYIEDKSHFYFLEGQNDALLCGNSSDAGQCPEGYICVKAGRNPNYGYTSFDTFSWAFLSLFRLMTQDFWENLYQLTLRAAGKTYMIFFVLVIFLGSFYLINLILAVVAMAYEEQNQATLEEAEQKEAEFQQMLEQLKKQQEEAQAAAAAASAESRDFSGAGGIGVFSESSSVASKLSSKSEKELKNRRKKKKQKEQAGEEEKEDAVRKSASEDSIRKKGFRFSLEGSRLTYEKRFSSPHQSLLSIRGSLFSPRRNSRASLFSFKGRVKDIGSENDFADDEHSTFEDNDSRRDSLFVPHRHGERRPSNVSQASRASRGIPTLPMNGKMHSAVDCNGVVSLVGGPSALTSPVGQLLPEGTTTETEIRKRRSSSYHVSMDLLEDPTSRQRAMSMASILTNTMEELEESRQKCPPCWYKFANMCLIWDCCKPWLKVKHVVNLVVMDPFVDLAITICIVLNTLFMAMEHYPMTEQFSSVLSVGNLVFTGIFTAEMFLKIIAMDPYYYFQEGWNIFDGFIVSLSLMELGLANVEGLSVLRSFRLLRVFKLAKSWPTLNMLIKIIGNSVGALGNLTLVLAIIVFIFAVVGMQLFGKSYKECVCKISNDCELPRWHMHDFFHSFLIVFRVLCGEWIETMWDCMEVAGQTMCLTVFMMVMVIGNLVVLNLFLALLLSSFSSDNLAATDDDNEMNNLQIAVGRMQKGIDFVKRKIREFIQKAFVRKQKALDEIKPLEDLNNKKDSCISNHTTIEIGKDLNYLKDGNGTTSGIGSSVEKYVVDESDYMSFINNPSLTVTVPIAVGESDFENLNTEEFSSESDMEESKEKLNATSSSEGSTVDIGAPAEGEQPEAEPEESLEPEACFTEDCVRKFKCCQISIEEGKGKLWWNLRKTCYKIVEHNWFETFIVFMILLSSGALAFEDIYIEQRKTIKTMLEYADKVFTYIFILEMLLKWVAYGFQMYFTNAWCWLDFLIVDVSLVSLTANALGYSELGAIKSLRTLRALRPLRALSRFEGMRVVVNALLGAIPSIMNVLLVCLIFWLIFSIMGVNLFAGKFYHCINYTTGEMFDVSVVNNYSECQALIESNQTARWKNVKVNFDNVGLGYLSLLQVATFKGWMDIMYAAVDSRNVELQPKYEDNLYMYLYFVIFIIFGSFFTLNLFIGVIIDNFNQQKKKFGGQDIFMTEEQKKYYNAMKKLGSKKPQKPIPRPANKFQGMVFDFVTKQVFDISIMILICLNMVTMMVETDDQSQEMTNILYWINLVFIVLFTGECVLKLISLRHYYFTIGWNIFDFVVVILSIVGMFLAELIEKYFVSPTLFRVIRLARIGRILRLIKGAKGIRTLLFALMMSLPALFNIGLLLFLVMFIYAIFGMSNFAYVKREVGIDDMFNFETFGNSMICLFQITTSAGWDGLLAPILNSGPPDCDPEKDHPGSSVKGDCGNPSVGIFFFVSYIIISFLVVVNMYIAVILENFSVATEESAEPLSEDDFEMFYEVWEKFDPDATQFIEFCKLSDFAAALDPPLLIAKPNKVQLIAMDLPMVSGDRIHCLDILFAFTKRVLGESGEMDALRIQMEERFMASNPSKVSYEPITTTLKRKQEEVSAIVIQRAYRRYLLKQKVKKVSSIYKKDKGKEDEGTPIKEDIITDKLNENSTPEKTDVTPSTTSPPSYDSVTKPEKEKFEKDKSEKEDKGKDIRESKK

Experiments:
[1] = biological target: Scn2a (mouse, endogenous, TurboID-HA knock-in) (mouse (endogenous in forebrain)) (UniProt B1AWN6); assay: proximity labelling
[2] = biological target: Scn2a (mouse, endogenous, untagged) (mouse (endogenous in forebrain)) (UniProt B1AWN6); assay: affinity purification with mass spectrometry

B1: Fgf12 (protein, UniProt P61329 1-243)
chain: MAAAIASSLIRQKRQARESNSDRVSASKRRSSPSKDGRSLCERHVLGVFSKVRFCSGRKRPVRRRPEPQLKGIVTRLFSQQGYFLQMHPDGTIDGTKDENSDYTLFNLIPVGLRVVAIQGVKASLYVAMNGEGYLYSSDVFTPECKFKESVFENYYVIYSSTLYRQQESGRAWFLGLNKEGQIMKGNRVKKTKPSSHFVPKPIEVCMYREPSLHEIGEKQGRSRKSSGTPTMNGGKVVNQDST
binding [1]: binds | binding [2]: binds

These are yes or no findings as the source states them, for the method shown. In cells and extracts the contact can be indirect. These calls come from enrichment with a bait or labelling near it, and not all partners need be listed.
